Experimental findings from patent US20140061616A1, “ORGANIC SEMICONDUCTOR MATERIAL, COATING LIQUID CONTAINING THE MATERIAL, AND ORGANIC THIN FILM TRANSISTOR” (IDEMITSU KOSAN CO., LTD., priority 2010, published 2014) are described below.

Series [1] is described as follows: Field-effect mobility of holes, organic thin film transistor produced by deposition method. The conditions noted are these: for Field-effect mobility: vacuum-deposited 50 nm layer on Si/SiO2, holes, current saturation region.
A short description of series [2]: Field-effect mobility of holes, organic thin film transistor produced by coating method. The conditions noted are these: spin-coated film from 0.4 mass % toluene solution, p-type, gate voltage VG −70 V.

On to `CCCCCCCCCCCCc1ccc2c(c1)sc1c2ccc2c1ccc1c3ccc(CCCCCCCCCCCC)cc3sc12` [Comparative compound (1)], for which the Field-effect mobility in series [1] was 1.2 × 10^−1 cm^2/Vs; in series [2] (listed as Comparative compound 1) it was 1.1 × 10^−4 cm^2/Vs; in series [2] (listed as comparative compound (1)) it was “very low”.
Turning to `CCCCCc1ccc2c(c1)sc1c2ccc2c1ccc1c3ccc(CCCCC)cc3sc12` [Compound A-3], the Field-effect mobility in series [1] is on record as 1.1 × 10^−0 cm^2/Vs; in series [2] it was 1.1×10^−1 cm^2/Vs. Also, the “field-effect mobility of holes in the current saturation region” value in series [1] (vacuum-deposited 50 nm layer, gate voltage 0 to −100 V) was determined as 1.1 cm^2Ns.
On to `c1ccc2cc3cc4cc5ccccc5cc4cc3cc2c1` [pentacene], for which, in series [1], the Field-effect mobility is 3.8×10^1 cm^2/Vs.
